No constants are given. Whether binding was seen depends on the method and setting. Binding seen in cells or lysates may run through a third protein. Binding can be weak; no strength is given. Sequences can lack the tags named with a protein.
Experiments:
Myc-ARD1-WT = target: T1, Myc-ARD1-WT (UniProt P41227); test: co-IP; AR-WT and Myc-ARD1-WT transfected in Cos-7 cells, without R1881; immunoprecipitated with anti-Myc antibody
T1 sequence: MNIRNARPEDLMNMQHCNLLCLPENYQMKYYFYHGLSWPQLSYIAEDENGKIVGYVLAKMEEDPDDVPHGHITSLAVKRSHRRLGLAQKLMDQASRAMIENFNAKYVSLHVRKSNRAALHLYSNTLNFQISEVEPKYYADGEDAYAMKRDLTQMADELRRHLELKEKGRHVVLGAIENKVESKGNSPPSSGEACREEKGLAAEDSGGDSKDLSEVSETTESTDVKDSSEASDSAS

Flag-ARD1 = target: T2, Flag-ARD1 (UniProt P41227); test: co-IP; sequential immunoprecipitation from 293T cells co-transfected with His-AR and Flag-ARD1, immunoblotting with antibodies as indicated; lysis/wash buffer 50 mM Tris-HCl pH 7.4, 150 mM NaCl, 1 mM EDTA, 1% Triton-X
T2 sequence: T1 sequence

Row | binding (Myc-ARD1-WT) | binding (Flag-ARD1) | Substance
1 | binds |  | wild-type androgen receptor (AR-WT)
2 |  | binds | His-AR (receptor)
